The list does not hold the whole screen: it is rich in T/C values a quarter to a half above the control, in often repeated tests (any T/C) and in doses without a T/C. Further doses and runs are listed elsewhere. T/C is the treated group as % of the vehicle group. Some doses have a count of surviving animals in place of a T/C: the source files T/C as zero there, which appears to mark a toxic dose or a test without result, not a measured value. Some survivor counts are full or nearly so, which does not show that the dose was tolerated: survival well below the control is almost never listed, so the zero probably covers shortened survival too. Survivors were counted at the toxicity check, usually on the fifth day, unless a day is given; later deaths do not show. Schedule codes are those of the source, read here as Q, the interval in days (D) or hours (H), X, the number of doses. Some schedule codes hold Z or #, which are not explained here. For survival time, this PubChem deposit counts one and a half times the control or more as active, and values a quarter to a half above the control carry no call in these data; other NCI protocols may use other cut-offs.

This assay has as its system L1210 leukemia ip in BDF1 mice, survival T/C. Briefly: NCI In Vivo Anticancer Drug Screen. Data for tumor model L1210 Leukemia (intraperitoneal) in B6D2F1 (BDF1) mice. Conditions: T/C endpoint: mean survival time, higher T/C = longer survival.
Setting [1] is: dose: 400.0 mg/kg/injection, schedule: Q04DX002 (ip), vehicle: saline.
Setting [2] is: dose: 400.0 mg/kg/injection, schedule: Q01DX009 (ip), vehicle: Klucel (hydroxypropylcellulose) (HPC).
Setting [3] is: dose: 100.0 mg/kg/injection, schedule: Q01DX001 (ip), vehicle: carboxymethylcellulose (CMC).
Setting [4] is: dose: 100.0 mg/kg/injection, schedule: Q04DX003 (ip), vehicle: Klucel (hydroxypropylcellulose) (HPC).
The mark [5] stands for this setting: dose: 400.0 mg/kg/injection, schedule: Q04DX003 (ip), vehicle: Klucel (hydroxypropylcellulose) (HPC).
Setting [6] is: dose: 100.0 mg/kg/injection, schedule: Q01DX009 (ip), vehicle: saline.
The mark [7] stands for this setting: dose: 200.0 mg/kg/injection, schedule: Q04DX003 (ip), vehicle: saline.
Where [8] appears, read: dose: 400.0 mg/kg/injection, schedule: Q04DX003 (ip), vehicle: saline.
The mark [9] stands for this setting: dose: 25.0 mg/kg/injection, schedule: Q01DX009 (ip), vehicle: Klucel (hydroxypropylcellulose) (HPC).
The mark [10] stands for this setting: dose: 100.0 mg/kg/injection, schedule: Q04DX003 (ip), vehicle: saline.

Take `O=[N+]([O-])c1ccc(NS(=O)(=O)c2ccc(Cl)c(Cl)c2)cc1`: the survivor count is on record as 5 of 6 (dose: 50.0 mg/kg/injection, schedule: Q01DX009 (ip), vehicle: gum acacia); 2 of 6 (dose: 100.0 mg/kg/injection, schedule: Q01DX001 (ip), vehicle: other); 1 of 6 (dose: 200.0 mg/kg/injection, schedule: Q01DX001 (ip), vehicle: other); 0 of 6 (dose: 400.0 mg/kg/injection, schedule: Q01DX001 (ip), vehicle: other).
`CCC[CH2][Sn]([CH2]C)([CH2]C)[CH2]C`: the survivor count under setting [1] was 0 of 3.
Regarding `CCOC(=O)c1cnc(SC)nc1Nc1ccccc1Cl`, for the setting “dose: 400.0 mg/kg/injection, schedule: Q04DX003 (ip), vehicle: saline with Tween-80”, the survivor count is reported as 6 of 6.
As for `O=S(=O)(O)SCC1=NCCN1`, the survivor count runs as follows: (dose: 100.0 mg/kg/injection, schedule: Q04DX002 (ip), vehicle: saline) 1 of 3; (dose: 200.0 mg/kg/injection, schedule: Q04DX002 (ip), vehicle: saline) 0 of 3; under setting [1], 0 of 3.
Consider `O=[N+]([O-])c1ccc2c(ccc3sc4ccccc4[n+]32)c1`, for which the survivor count by setting is: (dose: 75.0 mg/kg/injection, schedule: Q01DX001 (ip), vehicle: other) 3 of 6; (dose: 150.0 mg/kg/injection, schedule: Q01DX001 (ip), vehicle: other) 0 of 6; (dose: 300.0 mg/kg/injection, schedule: Q01DX001 (ip), vehicle: other) 0 of 6.
For the compound `Cc1cccc(C)c1NC(=O)Oc1ccccc1C(N)=O`, the survivor count under setting [2] was 2 of 6.
As for `CC1(C)CC(=O)c2ccccc21`, the survivor count (dose: 400.0 mg/kg/injection, schedule: Q01DX009 (ip), vehicle: saline) is recorded as 0 of 6.
Regarding `O=NN(CCCl)C(=O)Nc1c[nH]c(=O)[nH]c1=O`, the T/C runs as follows: (dose: 5.0 mg/kg/injection, schedule: Q01DX001 (ip), vehicle: carboxymethylcellulose (CMC)) 137 % of control; (dose: 9.0 mg/kg/injection, schedule: Q01DX Z (ip), vehicle: carboxymethylcellulose (CMC)) 145 % of control; (dose: 10.0 mg/kg/injection, schedule: Q01DX001 (ip), vehicle: carboxymethylcellulose (CMC)) 139 % of control; under setting [3], 145 % of control. Further, the survivor count is 4 of 6 (dose: 37.0 mg/kg/injection, schedule: Q01DX Z (ip), vehicle: carboxymethylcellulose (CMC)); 6 of 6 (dose: 50.0 mg/kg/injection, schedule: Q01DX Z (ip), vehicle: carboxymethylcellulose (CMC)); 3 of 6 (dose: 75.0 mg/kg/injection, schedule: Q01DX Z (ip), vehicle: carboxymethylcellulose (CMC)); 0 of 6 (dose: 100.0 mg/kg/injection, schedule: Q01DX Z (ip), vehicle: carboxymethylcellulose (CMC)); 1 of 6 (dose: 150.0 mg/kg/injection, schedule: Q01DX Z (ip), vehicle: carboxymethylcellulose (CMC)); 6 of 6 (dose: 250.0 mg/kg/injection, schedule: Q01DX001 (ip), vehicle: carboxymethylcellulose (CMC)). Further, the survivor count (dose: 375.0 mg/kg/injection, schedule: Q01DX001 (ip), vehicle: carboxymethylcellulose (CMC)) is 4 of 6 and the survivor count (dose: 500.0 mg/kg/injection, schedule: Q01DX001 (ip), vehicle: carboxymethylcellulose (CMC)) is reported as 1 of 6.
Turning to `FC(F)(F)c1cccc(P(c2cccc(C(F)(F)F)c2)c2ccccc2C(F)(F)F)c1`, under “dose: 200.0 mg/kg/injection, schedule: Q04DX003 (ip), vehicle: saline with Tween-80”, the survivor count is listed as 6 of 6.
Consider `O=C1NN(c2ccccc2)CCO1`, for which the survivor count under setting [2] is 0 of 6.
On to `NC(=S)SCCC(=O)O`, for which the survivor count under setting [4] is 2 of 6.
Regarding `CN(C)CCC(=O)c1ccc(-c2ccccc2)cc1`, the survivor count under setting [5] was 0 of 6.
Turning to `O=S1(=O)/C(=C\C2CCCCC2)c2c1c(-c1ccccc1)c1ccccc1c2-c1ccccc1`, the survivor count under setting [3] is 4 of 4.
In the case of `CN(N=O)C(=O)NCc1ccc(Cl)cc1`, the survivor count (dose: 300.0 mg/kg/injection, schedule: Q01DX Z (ip), vehicle: carboxymethylcellulose (CMC)) is 1 of 6.
With `C=CC1CC[N-]CC1.C=CC1CC[N-]CC1.C=CC1CC[N-]CC1.[Cl][Cr]([Cl])[Cl]`, the survivor count under setting [6] is 3 of 6.
Regarding `CN(N)P(=O)(c1ccccc1)N(C)N`, the survivor count under setting [6] is reported as 2 of 6, the survivor count under setting [7] is 2 of 6 and the survivor count under setting [8] is on record as 0 of 6.
`C[As](C)Sc1ncccn1`: the survivor count is 0 of 6 under setting [9]; 1 of 6 (dose: 50.0 mg/kg/injection, schedule: Q04DX003 (ip), vehicle: Klucel (hydroxypropylcellulose) (HPC)); 4 of 6 under setting [4]; 1 of 6 (dose: 200.0 mg/kg/injection, schedule: Q04DX003 (ip), vehicle: Klucel (hydroxypropylcellulose) (HPC)); 0 of 6 under setting [5].
Regarding `CCC[CH2][Sn]1([CH2]CCC)[O]OC(C)(CC)[O]1` (stereo not drawn), the survivor count was 0 of 6 (dose: 6.25 mg/kg/injection, schedule: Q01DX009 (ip), vehicle: Klucel (hydroxypropylcellulose) (HPC)); 0 of 6 (dose: 12.5 mg/kg/injection, schedule: Q01DX009 (ip), vehicle: Klucel (hydroxypropylcellulose) (HPC)); 4 of 6 (dose: 12.5 mg/kg/injection, schedule: Q01DX009 (ip), vehicle: saline sonified); 0 of 6 under setting [9]; 0 of 6 (dose: 25.0 mg/kg/injection, schedule: Q01DX009 (ip), vehicle: saline sonified).
With `C#CCN1CCCC1`, the survivor count under setting [10] is 5 of 6, the survivor count under setting [7] was 0 of 6 and the survivor count under setting [8] is 0 of 6.
As for `N#Cc1ccccc1NN=Nc1ccccc1-c1nc(N)nc(N)n1`, the survivor count under setting [10] is reported as 2 of 6.
As for `COc1c(CO)c2c(c(OC)c1OC)-c1ccc(OC)c(=O)cc1[C@@H](NC(C)=O)CC2`, the T/C is 126 % of control (dose: 22.0 mg/kg/injection, schedule: Q01DX015 (ip), vehicle: saline); 135 % of control (dose: 50.0 mg/kg/injection, schedule: Q01DX015 (ip), vehicle: saline); 143 % of control (dose: 75.0 mg/kg/injection, schedule: Q01DX015 (ip), vehicle: saline).

The record behind these values is PubChem BioAssay AID248 (DTP/NCI, 2004).
